The exact form of at least one protein or probe is not confirmed. For some of these results: Weaker means in comparison with the reference protein, sequence or condition of that experiment.
Tests used:
[1] = test system: GST-Com (zinc finger protein Com) (Haemophilus sputorum Mu-like prophage); assay: EMSA; conditions: EMSA: 50 mM Tris pH 7, 50 mM NaCl, 2.5 mM MgCl2, 20 uM ZnSO4, 1 mM DTT, 10% glycerol, 0.1% Igepal, 1 ug BSA, 2 ug dI-dC, ~4 pmol RNA, 1 h room temperature, recombinant protein, protein details: N-terminal GST, S-H linker, label: 5' 32P/33P (EMSA)
[2] = test system: GST-Com (zinc finger protein Com) (Haemophilus sputorum Mu-like prophage); assay: SHAPE footprinting; conditions: UV 254 nm crosslinked, 125:1 protein:RNA, recombinant protein, protein details: N-terminal GST, S-H linker, label: 5' 32P/33P (EMSA)
[3] = 0-2000 nM Com, 2.5 mM Mg2+, 20 uM Zn2+

Sequence	binding result [1, 3]	binding result ([2]; both GA protected)	further results
AGAGAACCCGGAGUUCCCU [RNA II (monomeric hairpin form)]	–	–	binding result ([1]; 0-2000 nM Com, hairpin form bound before duplex): binds
CGCGUACAAGUGAGUACCGG [RNA IB]	–	–	binding result ([1]; 2000 nM Com, 'very little binding', later called lack of binding): binds more weakly
GAAUGCCUGCGAGCAUCCC [19-mer Mom RNA]	binds	binds	–
CGAGAACCAGAGAGUUCCGG [RNA I]	binds	binds	–
CUGCAACCAGAGAGUUGCGG [RNA IA]	–	–	binding result ([1]; 2000 nM Com, less efficient than RNA I): binds more weakly; binding result ([2]; GA protected): binds
AGAGAACCCGGAGUUCCCU / AGAGAACCCGGAGUUCCCU [RNA II (self-complementary duplex)]	–	binds	binding result ([1]; 0-2000 nM Com, duplex bound only after all hairpin molecules were bound): binds more weakly
